The values below come from article PMC10522396.

By UniProt entry, the sequences of proteins in these tests, tags left out.
UniProt P08699: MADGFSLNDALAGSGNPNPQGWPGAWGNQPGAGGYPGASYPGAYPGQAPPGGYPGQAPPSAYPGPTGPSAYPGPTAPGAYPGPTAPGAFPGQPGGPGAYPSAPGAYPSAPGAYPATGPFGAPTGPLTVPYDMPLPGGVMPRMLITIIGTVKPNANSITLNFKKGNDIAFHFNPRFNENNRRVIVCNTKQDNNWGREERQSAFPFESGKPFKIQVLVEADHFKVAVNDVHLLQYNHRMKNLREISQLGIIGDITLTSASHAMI

The experiment has as its target Galectin-3 (rat (endogenous in Sprague-Dawley rat brain)) (UniProt P08699). The experiment can be described thus: co-IP; rat brain tissue lysed in cell lysis buffer (Sham, ICH, ICH+shRNA-control, ICH+shRNA-Gal-3, ICH+LV-control, ICH+LV-Gal-3 groups); incubated 3 h at 4 °C with Gal-3 antibody or rabbit IgG (negative control), then 8 h at 4 °C with Protein A/G Plus-Agarose; washed five times; TLR-4 detected by western blot.

These are yes or no findings as the source states them, for the method shown. Binding seen in cells or lysates may run through a third protein. Some results given as binding are weak or reduced against the parent protein; the word gives no strength.

B1: TLR-4 (receptor, UniProt Q9QX05 26-835)
chain: NPCIEVLPNITYQCMDQNLSKIPHDIPYSTKNLDLSFNPLKILRSYSFTNFSQLQWLDLSRCEIETIEDKAWHGLNQLSTLVLTGNPIKSFSPGSFSGLTNLENLVAVETKMTSLEGFHIGQLISLKKLNVAHNLIHSFKLPEYFSNLTNLEHVDLSYNYIQTISVKDLQFLRENPQVNLSLDLSLNPIDSIQAQAFQGIRLHELTLRSNFNSSNVLKMCLQNMTGLHVHRLILGEFKNERNLESFDRSVMEGLCNVSIDEFRLTYINHFSDDIYNLNCLANISAMSFTGVHIKHIADVPRHFKWQSLSIIRCHLKPFPKLSLPFLKSWTLTTNREDISFGQLALPSLRYLDLSRNAMSFRGCCSYSDFGTNNLKYLDLSFNGVILMSANFMGLEELEYLDFQHSTLKKVTEFSVFLSLEKLLYLDISYTNTKIDFDGIFLGLISLNTLKMAGNSFKDNTLSNVFTNTTNLTFLDLSKCQLEQISRGVFDTLYRLQLLNMSHNNLLFLDPSHYKQLYSLRTLDCSFNRIETSKGILQHFPKSLAVFNLTNNSVACICEYQNFLQWVKDQKMFLVNVEQMKCASPIDMKASLVLDFTNSTCYIYKTIISVSVVSVLVVATVAFLIYHFYFHLILIAGCKKYSRGESIYDAFVIYSSQNEDWVRNELVKNLEEGVPRFQLCLHYRDFIPGVAIAANIIQEGFHKSRKVIVVVSRHFIQSRWCIFEYEIAQTWQFLSSRSGIIFIVLEKVEKSLLRQQVELYRLLSRNTYLEWEDNALGRHIFWRRLKKALLDGKALNPDETSEEEQEATTLT
B1: the binding result is recorded as “binds”.
